Results are given in words; binding and its absence hold for the method and conditions named. Some binding calls cover weakened binding; strength is not graded here.
Molecular target: T1, CD39 mutant 2A (human) (UniProt P49961)
T1 sequence: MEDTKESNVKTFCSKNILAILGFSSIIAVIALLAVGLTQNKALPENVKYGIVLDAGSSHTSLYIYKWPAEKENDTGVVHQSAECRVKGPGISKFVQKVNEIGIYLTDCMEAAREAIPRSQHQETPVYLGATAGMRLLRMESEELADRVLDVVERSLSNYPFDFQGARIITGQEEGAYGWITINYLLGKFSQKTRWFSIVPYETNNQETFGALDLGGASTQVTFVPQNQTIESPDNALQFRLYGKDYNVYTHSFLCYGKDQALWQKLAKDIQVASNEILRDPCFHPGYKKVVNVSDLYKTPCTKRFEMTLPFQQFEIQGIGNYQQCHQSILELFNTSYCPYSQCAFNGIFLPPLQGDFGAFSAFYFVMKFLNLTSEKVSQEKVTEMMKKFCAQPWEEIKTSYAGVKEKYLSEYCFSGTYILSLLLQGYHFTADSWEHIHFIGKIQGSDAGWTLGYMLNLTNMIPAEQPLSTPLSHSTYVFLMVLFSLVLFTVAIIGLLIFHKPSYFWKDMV
Assay: flow cytometry on transfected Hek-293T cells

B1: antibody I-399 (antibody, V domains shown)
VH: PVQLQQPGAEVVMPGASVKLSCKASGYTFTSFWMNWMRQRPGQGLEWIGEIDPSDFYTNSNQRFKGKATLTVDKSSSTAYMQLSSLTSEDSAVYFCARGDFGWYFDVWGTGTSVTVSS
VL: EIVLTQSPTTMTSSPGEKITFTCSASSSINSNYLHWYQQKPGFSPKLLIYRTSNLASGVPTRFSGSGSGTSYSLTIGTMEAEDVATYYCQQGSSLPRTFGGGTKLEIK
- binding: binds
